Experimental data: PubChem BioAssay AID652243 (Drosophila RNAi Screening Center, 2013)

- Screen: 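Fly regulators of androgen-dependent reporter output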 (primary screen)
- System: Drosophila S2R+ cells
- Knock-down reagent: long dsRNA against Drosophila genes
- Time to read-out: 72 h (48 h, then 24 h hormone)
- Treatment: synthetic androgen R1881 at 10 nM for 24 h
- Measurement: 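Per-well raw luminescence of the androgen-driven firefly reporter and of the Renilla control, two replicates each, without normalisation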
- Direction: firefly reporter light: higher = more light from androgen-responsive reporter; Renilla control light: higher = more constitutive control signal (cell number, transfection)
- Hit rule: 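Hit when the log firefly-to-Renilla ratio dropped or increased by a fixed fold versus the mean of GFP or LacZ controls across duplicate plates; lowering cut given as 1.5 and as 3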
- Meaning of the calls: active = hit: reporter lowered or raised; inactive = no hit
In all, the deposit lists about 24,000 reagents; below is a random part of those with a known target gene and a result. Over the whole deposit, 246 (1%) were called active. 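Plates not normalised; calls are printed but the firefly/Renilla ratio behind them is not deposited; fold cut for lowering reported inconsistently.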 Raw values vary from plate to plate and are shown uncorrected. A number with no mark means an inactive call. Reagents against one gene are numbered here. Not stated in the record: the amount of reagent.

With knock-down of dpr16 #1 the results were firefly reporter light, replicate 1 = 60193; firefly reporter light, replicate 2 = 36388; Renilla control light, replicate 1 = 1.21e6; Renilla control light, replicate 2 = 1.11e6.
After knock-down of dpr16 #2, the screen gave firefly reporter light, replicate 1 = 5.13e5; firefly reporter light, replicate 2 = 5.05e5; Renilla control light, replicate 1 = 2.64e6; Renilla control light, replicate 2 = 3.23e6.
After knock-down of CG16717 #1, the record shows firefly reporter light, replicate 1 = 2.30e5; firefly reporter light, replicate 2 = 2.44e5; Renilla control light, replicate 1 = 2.65e6; Renilla control light, replicate 2 = 2.68e6.
CG16717 #2 gave firefly reporter light, replicate 1 = 7.13e5; firefly reporter light, replicate 2 = 7.42e5; Renilla control light, replicate 1 = 1.12e6; Renilla control light, replicate 2 = 1.12e6.
Depletion of Sh #1 gave: firefly reporter light, replicate 1 = 43039; firefly reporter light, replicate 2 = 68344; Renilla control light, replicate 1 = 56133; Renilla control light, replicate 2 = 73078.
After knock-down of Sh #2, the record shows firefly reporter light, replicate 1 = 4.11e5; firefly reporter light, replicate 2 = 4.22e5; Renilla control light, replicate 1 = 2.68e6; Renilla control light, replicate 2 = 2.30e6.
Depletion of Sh #3 resulted in: firefly reporter light, replicate 1 = 4.71e5; firefly reporter light, replicate 2 = 5.23e5; Renilla control light, replicate 1 = 3.17e6; Renilla control light, replicate 2 = 3.14e6.
Sh #4 scored firefly reporter light, replicate 1 = 2.52e5; firefly reporter light, replicate 2 = 3.89e5; Renilla control light, replicate 1 = 6.99e5; Renilla control light, replicate 2 = 6.17e5.
Against Sh #5, the entry reads firefly reporter light, replicate 1 = 4.69e5; firefly reporter light, replicate 2 = 5.46e5; Renilla control light, replicate 1 = 5.03e5; Renilla control light, replicate 2 = 5.44e5.
With knock-down of caup, the record shows firefly reporter light, replicate 1 = 5.99e5; firefly reporter light, replicate 2 = 7.95e5; Renilla control light, replicate 1 = 1.39e6; Renilla control light, replicate 2 = 1.43e6.
Silencing of CG5167 resulted in: firefly reporter light, replicate 1 = 1.78e5; firefly reporter light, replicate 2 = 1.61e5; Renilla control light, replicate 1 = 2.37e6; Renilla control light, replicate 2 = 2.39e6.
For mor #1, the entry reads firefly reporter light, replicate 1 = 2.24e5; firefly reporter light, replicate 2 = 2.41e5; Renilla control light, replicate 1 = 1.74e6; Renilla control light, replicate 2 = 1.74e6.
For mor #2, the values are firefly reporter light, replicate 1 = 7.01e5; firefly reporter light, replicate 2 = 5.05e5; Renilla control light, replicate 1 = 1.54e6; Renilla control light, replicate 2 = 1.21e6.

Copied from the entries so far, 2 entries:
caup — firefly reporter light, replicate 1: 5.99e5; firefly reporter light, replicate 2: 7.95e5; Renilla control light, replicate 1: 1.39e6; Renilla control light, replicate 2: 1.43e6
CG5167 — firefly reporter light, replicate 1: 1.78e5; firefly reporter light, replicate 2: 1.61e5; Renilla control light, replicate 1: 2.37e6; Renilla control light, replicate 2: 2.39e6
